These are yes or no findings as the source states them, for the method shown. In cells and extracts the contact can be indirect. Some entries that bind do so weakly or less than the wild type.

Chains of the proteins cited; added tags and fusions are not shown. Lines headed by an entry give the natural chain unless they say otherwise; changes in a name come on top.
UniProt Q969H0: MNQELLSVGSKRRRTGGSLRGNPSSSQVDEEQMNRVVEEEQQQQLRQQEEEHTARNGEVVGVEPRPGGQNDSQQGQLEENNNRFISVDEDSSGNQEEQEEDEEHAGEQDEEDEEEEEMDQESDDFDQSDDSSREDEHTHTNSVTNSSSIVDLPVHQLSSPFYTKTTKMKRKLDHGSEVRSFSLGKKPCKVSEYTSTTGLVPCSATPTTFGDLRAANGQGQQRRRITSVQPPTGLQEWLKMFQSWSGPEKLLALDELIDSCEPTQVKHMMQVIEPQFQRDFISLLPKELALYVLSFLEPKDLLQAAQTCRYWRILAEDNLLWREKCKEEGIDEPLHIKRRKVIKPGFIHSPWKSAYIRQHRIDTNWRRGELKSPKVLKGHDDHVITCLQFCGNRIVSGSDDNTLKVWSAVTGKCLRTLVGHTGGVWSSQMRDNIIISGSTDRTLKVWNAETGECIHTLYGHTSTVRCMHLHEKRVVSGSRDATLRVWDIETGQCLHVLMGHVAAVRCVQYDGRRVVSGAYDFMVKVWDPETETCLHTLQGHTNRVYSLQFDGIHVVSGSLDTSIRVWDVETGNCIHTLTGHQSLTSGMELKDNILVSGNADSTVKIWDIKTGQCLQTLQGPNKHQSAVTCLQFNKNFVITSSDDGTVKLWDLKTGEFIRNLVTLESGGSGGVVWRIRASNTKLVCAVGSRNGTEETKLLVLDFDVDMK
UniProt Q00613: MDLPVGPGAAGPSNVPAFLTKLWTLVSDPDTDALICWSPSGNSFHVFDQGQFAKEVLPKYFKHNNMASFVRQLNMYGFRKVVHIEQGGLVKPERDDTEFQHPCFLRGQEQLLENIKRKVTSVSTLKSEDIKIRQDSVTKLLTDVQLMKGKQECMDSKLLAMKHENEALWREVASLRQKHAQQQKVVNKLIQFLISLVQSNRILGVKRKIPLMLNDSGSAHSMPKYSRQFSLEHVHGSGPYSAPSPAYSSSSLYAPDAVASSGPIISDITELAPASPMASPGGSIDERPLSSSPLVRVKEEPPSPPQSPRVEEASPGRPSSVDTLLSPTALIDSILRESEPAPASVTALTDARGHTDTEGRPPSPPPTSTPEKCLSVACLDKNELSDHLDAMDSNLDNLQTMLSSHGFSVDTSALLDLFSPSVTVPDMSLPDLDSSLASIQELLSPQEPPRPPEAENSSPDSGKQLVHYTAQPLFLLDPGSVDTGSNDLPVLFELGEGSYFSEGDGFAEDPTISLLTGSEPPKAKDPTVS

These results are taken from PMC5316841.

The target in this test is Fbxw7-FLAG (UniProt Q969H0). The experiment in a line: co-IP; hsf1-/- MEFs co-expressing Fbxw7-FLAG and WT HSF1 or S303A; lysis in 50 mM Tris pH 7.4, 10% glycerol, 150 mM NaCl, 1 mM EDTA, 1% Triton X-100; anti-FLAG M2 magnetic beads overnight at 4 °C; HSF1 detected by immunoblot. (In general: In western blotting, separated proteins are transferred to a membrane and probed.)

As for “HSF1 S303A mutant (from UniProt Q00613 1-529)”, the binding result is on record as “binds”. For “heat shock transcription factor 1 (HSF1), wild type (from UniProt Q00613 1-529)”, the binding result is given as “binds”.
